Reference: PubChem BioAssay AID1671190 (National Center for Advancing Translational Sciences (NCATS), 2021)
About 6,100 (1.1%) of roughly 580,000 compounds were called active. Inconclusive means that the source gave no clear call. Such entries were picked first, then a sample of the others. The call rests on the fitted dose curve; in most records, active means well fitted inhibition curve with a large enough effect; inconclusive means small, poorly fitted or top-dose-only effect, or another doubt; inactive means no such curve, though single readings can be large or run the other way. A potency beside an inconclusive call is a rough fit, not a confirmed value.

Sequences of proteins named here, by UniProt entry; tags and fusion partners are left off. A change or cut given only in a name is not applied to a line headed by its entry.
UniProt P18054: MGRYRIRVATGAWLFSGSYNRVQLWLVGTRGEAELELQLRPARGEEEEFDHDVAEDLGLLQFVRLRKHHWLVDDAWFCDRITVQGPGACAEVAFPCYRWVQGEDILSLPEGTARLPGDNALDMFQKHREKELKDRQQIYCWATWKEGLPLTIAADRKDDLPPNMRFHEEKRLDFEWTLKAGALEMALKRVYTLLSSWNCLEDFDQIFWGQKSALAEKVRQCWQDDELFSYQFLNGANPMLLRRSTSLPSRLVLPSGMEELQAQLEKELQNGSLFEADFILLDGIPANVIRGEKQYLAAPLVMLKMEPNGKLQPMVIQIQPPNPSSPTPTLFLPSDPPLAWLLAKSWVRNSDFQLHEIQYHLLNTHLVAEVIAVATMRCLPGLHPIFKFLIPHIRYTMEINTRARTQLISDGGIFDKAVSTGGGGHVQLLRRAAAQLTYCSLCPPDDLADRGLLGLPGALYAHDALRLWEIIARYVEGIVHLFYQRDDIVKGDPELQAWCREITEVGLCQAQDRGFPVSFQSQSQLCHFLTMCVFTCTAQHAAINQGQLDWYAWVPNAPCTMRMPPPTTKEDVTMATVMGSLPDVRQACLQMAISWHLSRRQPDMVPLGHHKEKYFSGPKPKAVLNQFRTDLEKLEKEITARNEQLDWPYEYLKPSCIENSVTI

What follows are molecules tested against Polyunsaturated fatty acid lipoxygenase ALOX12 (Homo sapiens) (UniProt P18054) (assay: Primary qHTS assay for inhibitors of human arachidonate 12S-lipoxygenase (ALOX12): Round 2). Settings: purified 12hLO, xylenol orange hydroperoxide absorbance; series mostly up to 108 µM.
Method in brief: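 Purified human 12hLO at 150 nM in 25 mM Hepes, 0.01% Triton X-100, pH 7.0, preincubated 15 min at room temperature with compound. Reaction started with 40 uM arachidonic acid, 30 min at room temperature. Hydroperoxide measured by Fe-xylenol orange, 573/405 nm absorbance ratio.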
Potency means the concentration at half of the fitted maximal effect.

Row | Structure (SMILES) | Potency
1 | COc1cccc(/C=C/C(=O)Oc2ccc(C#N)cc2OC)c1 | inconclusive: 8.91 µM [inhibitor, full curve, poor fit]
2 | Cc1ccccc1NC(=O)CN1C(=O)CSc2ccc(S(=O)(=O)N3CCCC3)cc21 | inactive
3 | Cc1cnc(CC2CCN(S(=O)(=O)c3cccc(F)c3)C2)n1C(C)C (centres undefined) | inactive
4 | CCCCC1CCNC1 (centres undefined) | inconclusive: 0.0891 µM [inhibitor, full curve, poor fit]
5 | CCn1ncc(Br)c1C(=O)Nc1ccc(C(C)C)cc1 | inconclusive: 1.78 µM [inhibitor, full curve, poor fit]
6 | CCCCn1c(=O)n(CC(=O)NC(C)C(C)C)c(=O)c2c1ncn2Cc1ccco1 (centres undefined) | inconclusive: 56.2 µM [inhibitor, single point]
7 | CC(C(=O)Nc1ccc(C(F)(F)F)cc1)N(C)C (centres undefined) | inactive
8 | CCCOc1cccc(-c2cc(-c3n[nH]c(=S)n3CC)c3ccccc3n2)c1 | inconclusive: 31.6 µM [inhibitor, partial curve, poor fit]
9 | Cc1ccc(-c2ccc(/C=N/Nc3ccc(S(N)(=O)=O)cc3)o2)c([N+](=O)[O-])c1 | inconclusive: 35.5 µM [inhibitor, partial curve, poor fit]
10 | O=C(O)c1ccc(C=Nc2ccc(Br)cc2)cc1 | inactive
11 | Cc1cc(F)ccc1NC(=O)CCc1ncc(-c2ccccc2)o1 | inactive
12 | CN(C(=O)c1ccc2ccccc2n1)C1CCN(Cc2ccncc2)CC1 | inconclusive: 20 µM [inhibitor, partial curve, poor fit]
13 | O=C(Nc1ccc(N2CCOCC2)c(S(=O)(=O)Nc2ccc(Cl)cc2)c1)c1cnccn1 | active: 8.91 µM
14 | CC1CCN([C@@H]2[C@H](O)[C@H](CO)O[C@@H]2CNC2CCCCC2)CC1 | inconclusive: 20 µM [inhibitor, full curve]
15 | COCc1cc(N2CCNC[C@H]2C)ccc1N1CCN(Cc2ccccc2)[C@@H](C)C1 | inconclusive: 44.7 µM [inhibitor, partial curve, poor fit]
16 | O=C(Cc1cccs1)N1CCN(c2ncnc3c2nnn3-c2ccccc2)CC1 | inconclusive: 112 µM [inhibitor, partial curve, poor fit]
17 | COc1ccccc1NC(=O)c1ccccc1C(=O)Nc1ccccc1OC | inactive
18 | CCc1nn(CC(=O)NC(C)c2ccccc2)c(=O)c2cc3sccc3n12 (centres undefined) | inconclusive: 56.2 µM [inhibitor, partial curve, poor fit]
19 | CC(C)Oc1ccc(S(=O)(=O)N2CCCCC2)cc1NC(=O)C1=NN(c2ccccc2)C(=O)CC1 | inconclusive: 89.1 µM [inhibitor, single point]
20 | CN(C)c1ccc(/C=N/NC(=O)c2sccc2-n2cccc2)cc1 | inactive
21 | Cc1onc(-c2c(F)cccc2Cl)c1C(=O)Nc1cc(S(=O)(=O)N2CCCCC2)ccc1O | inconclusive: 56.2 µM [inhibitor, partial curve, poor fit]
22 | Cc1ccc(C2Cc3ccccc3N2)cc1 (centres undefined) | inconclusive: 0.447 µM [inhibitor, full curve, poor fit]

Row | Structure (SMILES) | Potency
23 | CCOC(=O)NC1CCCN(CC=C(C)C)C1 (centres undefined) | inactive
24 | Cc1cc(-c2nnc(SCC(=O)Nc3ccc(C(F)(F)F)cc3)n2C)no1 | inactive
25 | CSc1nc(N)nc2c1ncn2C1OC(CO)CC1O (centres undefined) | inconclusive: 39.8 µM [inhibitor, partial curve]
26 | COCCCN1C2=C(C(=O)CC(C)(C)C2)C(c2ccc(OC)c(OC)c2)C2=C1CC(C)(C)CC2=O | inconclusive: 28.2 µM [inhibitor, partial curve, poor fit]
27 | C[C@@H]1CN([C@H](C)CO)C(=O)c2cc(NC(=O)Cc3ccccc3)ccc2O[C@H]1CN(C)Cc1ccc(Oc2ccccc2)cc1 | inconclusive: 100 µM [inhibitor, single point]
28 | c1ccc(NCCSc2nc3ccccc3s2)cc1 | inconclusive: 7.08 µM [inhibitor, full curve, poor fit]
29 | O=C(Cc1ccc(Cl)cc1)NCCS(=O)c1ccc(Cl)cc1 (centres undefined) | inconclusive: 8.91 µM [inhibitor, partial curve, poor fit]
30 | O=C(Nc1ccc(S(=O)(=O)Nc2ccccn2)cc1)c1cccc(Cl)c1 | inconclusive: 50.1 µM [inhibitor, partial curve, poor fit]
31 | CC(=O)NCc1ccc(S(=O)(=O)N2CCN(c3ccccn3)CC2)cc1 | inactive
32 | COc1cc(/C=C/C(=O)c2ccc3c(c2)OCO3)cc(Cl)c1O | inconclusive: 50.1 µM [inhibitor, partial curve, poor fit]
33 | CC1CCC2(CC1)N=C(c1cccc(F)c1)C(=S)N2 (centres undefined) | inconclusive: 126 µM [inhibitor, single point]
34 | O=c1[nH][nH]c2ccccc2c1=O | inconclusive: 8.91 µM [inhibitor, partial curve, poor fit]
35 | CCOc1ccc(-n2nc3cc(C)c(N)cc3n2)cc1 | inconclusive: 44.7 µM [inhibitor, partial curve, poor fit]
36 | CS(=O)(=O)c1ccccc1NC(=O)CNc1cc(Cl)ccc1N1CCCC1 | inactive
37 | CCOC(=O)c1sc(NC(=O)Nc2ccc(Cl)c(Cl)c2)nc1C | inconclusive: 31.6 µM [inhibitor, partial curve, poor fit]
38 | COC(=O)CC1Oc2ccccc2N(Cc2ccccc2)C1=O (centres undefined) | inactive
39 | CCN(CC)c1ccc(/C=C/c2cc(-c3ccccc3)c3ccccc3n2)cc1 | inconclusive: 39.8 µM [inhibitor, single point]
40 | Cc1ccc(C2=C(O)C(=O)N(c3ccc(F)cc3)C2c2ccc(C(=O)O)cc2)cc1 (centres undefined) | inconclusive: 22.4 µM [inhibitor, full curve, poor fit]
41 | NCCCCCc1cnc[nH]1 | inconclusive: 28.2 µM [inhibitor, partial curve, poor fit]
42 | CC(=O)N(Cc1ccccc1)c1nc(-c2ccccc2)cs1 | inactive
43 | COc1ccc(NC(=O)c2nc(-c3ccccc3)oc2C)cc1 | inactive
44 | Cc1cc(C)c2[nH]c(=O)c(C(c3nnnn3Cc3ccc4c(c3)OCO4)N3CCCC3)cc2c1 (centres undefined) | inconclusive: 35.5 µM [inhibitor, partial curve, poor fit]

Ordered by SMILES length (smallest number first): part of the list above
Row | Structure (SMILES) | Potency
32 | COc1cc(/C=C/C(=O)c2ccc3c(c2)OCO3)cc(Cl)c1O | inconclusive: 50.1 µM [inhibitor, partial curve, poor fit]
30 | O=C(Nc1ccc(S(=O)(=O)Nc2ccccn2)cc1)c1cccc(Cl)c1 | inconclusive: 50.1 µM [inhibitor, partial curve, poor fit]
40 | Cc1ccc(C2=C(O)C(=O)N(c3ccc(F)cc3)C2c2ccc(C(=O)O)cc2)cc1 (centres undefined) | inconclusive: 22.4 µM [inhibitor, full curve, poor fit]
